# Where a name gives a salt, the structure may show the parent alone.
# Tested on: citrus leaves
# Test: Rainfastness assay on citrus leaves
# Design: species or system Citrus reshni
# [1] = 500 μg/mL streptomycin, leaves submerged 30 seconds in DI water
smiles,measurement,setting,value
"[H]/N=C(/N)N[C@H]1[C@H](O)[C@@H](O)[C@H](O[C@@H]2O[C@@H](C)[C@](O)(C=O)[C@H]2O[C@@H]2O[C@@H](CO)[C@H](O)[C@@H](O)[C@@H]2NC)[C@@H](N/C(N)=N\[H])[C@@H]1O [Streptomycin sulfate, streptomycin sulfate]",loss of streptomycin after the first wash,[1],Around 50%
same,streptomycin remaining after the second wash,[1],30%
same,extraction efficiency of streptomycin from the leaf surface,unwashed leaves,98%

# From patent publication US12070031B2 (priority 2020, dated 2024)
